Structures can show the parent of a compound that is named as a salt. The list shows a part of the results. The calls rarely recur for the same compound in another form.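 Kinases, fused to nanoluciferase, were expressed in K562 cells; luminescence was measured every 4 h from 2 to 18 h as percent of control (DMSO = 100%, positive control = 0%). A time point is decreased if signal falls significantly (2 sigma). Hits were called by the authors by a rule that is not shown; the count of time points alone does not decide it.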
Experiments:
Test in all cases: kinase-Nluc reporter destabilization hit call (1 = scored as downregulated) (binary); higher = compound decreases kinase abundance
Conditions in all cases: K562; 2-18 h
[1] = molecular target: ABL1 (UniProt P00519)
[2] = molecular target: AKT1 (UniProt P31749)
[3] = molecular target: ALK (UniProt Q9UM73)
[4] = molecular target: ARAF (UniProt P10398)
[5] = molecular target: AURKA (UniProt O14965)
[6] = molecular target: AURKB (UniProt Q96GD4)
[7] = molecular target: AURKC (UniProt Q9UQB9)
[8] = molecular target: BLK (UniProt P51451)
[9] = molecular target: BMX (UniProt P51813)
[10] = molecular target: BRAF (UniProt P15056)
[11] = system: BRAF_V600E
[12] = molecular target: BTK (UniProt Q06187)
[13] = molecular target: CAMK2A (UniProt Q9UQM7)
[14] = molecular target: CAMK2G (UniProt Q13555)
[15] = molecular target: CDK10 (UniProt Q15131)
[16] = molecular target: CDK2 (UniProt P24941)
[17] = molecular target: CDK3 (UniProt Q00526)
[18] = molecular target: CDK4 (UniProt P11802)
[19] = molecular target: CDK5 (UniProt Q00535)
[20] = molecular target: CDK6 (UniProt Q00534)

Sequences of proteins named here, by UniProt entry; tags and fusion partners are left off. A change or cut given only in a name is not applied to a line headed by its entry.
UniProt P31749: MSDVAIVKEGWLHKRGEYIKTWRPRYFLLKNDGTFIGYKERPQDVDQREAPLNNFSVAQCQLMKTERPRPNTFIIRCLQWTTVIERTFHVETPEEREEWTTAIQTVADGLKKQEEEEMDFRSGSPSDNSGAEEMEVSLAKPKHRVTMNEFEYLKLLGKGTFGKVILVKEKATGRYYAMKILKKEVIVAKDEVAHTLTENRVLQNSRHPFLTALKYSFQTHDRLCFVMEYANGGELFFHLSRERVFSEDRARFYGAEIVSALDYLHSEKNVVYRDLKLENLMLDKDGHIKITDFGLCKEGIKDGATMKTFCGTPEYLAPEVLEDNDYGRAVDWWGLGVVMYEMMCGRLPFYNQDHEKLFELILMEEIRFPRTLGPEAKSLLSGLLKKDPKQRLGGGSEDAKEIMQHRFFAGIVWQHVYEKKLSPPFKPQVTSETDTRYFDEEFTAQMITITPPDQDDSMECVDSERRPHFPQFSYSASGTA
UniProt Q9UM73: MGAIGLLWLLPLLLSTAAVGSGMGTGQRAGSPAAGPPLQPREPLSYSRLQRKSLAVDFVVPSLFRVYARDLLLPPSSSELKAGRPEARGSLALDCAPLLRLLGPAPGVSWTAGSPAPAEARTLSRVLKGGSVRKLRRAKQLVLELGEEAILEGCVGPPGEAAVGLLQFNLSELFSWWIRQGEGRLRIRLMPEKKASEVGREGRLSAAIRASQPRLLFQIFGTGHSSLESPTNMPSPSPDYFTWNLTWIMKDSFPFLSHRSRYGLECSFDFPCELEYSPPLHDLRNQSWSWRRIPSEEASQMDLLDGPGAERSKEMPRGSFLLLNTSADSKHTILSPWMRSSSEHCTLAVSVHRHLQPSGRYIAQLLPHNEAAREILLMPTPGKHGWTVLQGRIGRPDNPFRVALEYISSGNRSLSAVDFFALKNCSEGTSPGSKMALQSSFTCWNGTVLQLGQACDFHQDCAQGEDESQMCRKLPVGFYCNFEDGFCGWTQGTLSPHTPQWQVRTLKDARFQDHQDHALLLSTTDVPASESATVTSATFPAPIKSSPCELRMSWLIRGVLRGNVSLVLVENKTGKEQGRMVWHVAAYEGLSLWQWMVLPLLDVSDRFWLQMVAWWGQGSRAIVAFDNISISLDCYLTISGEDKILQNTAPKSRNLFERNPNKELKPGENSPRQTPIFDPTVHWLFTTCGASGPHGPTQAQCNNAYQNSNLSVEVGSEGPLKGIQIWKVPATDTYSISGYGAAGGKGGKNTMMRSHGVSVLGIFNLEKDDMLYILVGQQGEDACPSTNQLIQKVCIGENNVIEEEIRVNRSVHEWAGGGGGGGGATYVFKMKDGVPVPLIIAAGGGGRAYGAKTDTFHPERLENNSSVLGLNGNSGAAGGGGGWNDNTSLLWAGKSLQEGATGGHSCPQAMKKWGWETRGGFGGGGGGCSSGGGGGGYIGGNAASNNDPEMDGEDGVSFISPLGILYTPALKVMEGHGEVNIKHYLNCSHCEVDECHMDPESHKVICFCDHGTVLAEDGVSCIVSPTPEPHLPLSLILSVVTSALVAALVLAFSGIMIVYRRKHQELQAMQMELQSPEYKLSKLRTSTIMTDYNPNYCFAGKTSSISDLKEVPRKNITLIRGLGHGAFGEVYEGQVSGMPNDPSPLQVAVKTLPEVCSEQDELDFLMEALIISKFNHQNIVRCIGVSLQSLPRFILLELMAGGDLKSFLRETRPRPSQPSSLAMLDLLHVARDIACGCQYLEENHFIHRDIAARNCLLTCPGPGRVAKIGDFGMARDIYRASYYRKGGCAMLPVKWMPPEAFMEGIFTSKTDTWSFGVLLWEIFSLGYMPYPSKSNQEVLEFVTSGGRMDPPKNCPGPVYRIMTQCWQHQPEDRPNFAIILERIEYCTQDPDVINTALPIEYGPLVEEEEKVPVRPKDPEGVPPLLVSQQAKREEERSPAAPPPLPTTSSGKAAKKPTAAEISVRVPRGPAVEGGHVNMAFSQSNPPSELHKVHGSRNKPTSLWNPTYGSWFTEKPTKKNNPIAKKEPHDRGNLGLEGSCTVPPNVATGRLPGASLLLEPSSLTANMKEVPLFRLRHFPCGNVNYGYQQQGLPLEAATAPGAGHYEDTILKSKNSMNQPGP
UniProt P10398: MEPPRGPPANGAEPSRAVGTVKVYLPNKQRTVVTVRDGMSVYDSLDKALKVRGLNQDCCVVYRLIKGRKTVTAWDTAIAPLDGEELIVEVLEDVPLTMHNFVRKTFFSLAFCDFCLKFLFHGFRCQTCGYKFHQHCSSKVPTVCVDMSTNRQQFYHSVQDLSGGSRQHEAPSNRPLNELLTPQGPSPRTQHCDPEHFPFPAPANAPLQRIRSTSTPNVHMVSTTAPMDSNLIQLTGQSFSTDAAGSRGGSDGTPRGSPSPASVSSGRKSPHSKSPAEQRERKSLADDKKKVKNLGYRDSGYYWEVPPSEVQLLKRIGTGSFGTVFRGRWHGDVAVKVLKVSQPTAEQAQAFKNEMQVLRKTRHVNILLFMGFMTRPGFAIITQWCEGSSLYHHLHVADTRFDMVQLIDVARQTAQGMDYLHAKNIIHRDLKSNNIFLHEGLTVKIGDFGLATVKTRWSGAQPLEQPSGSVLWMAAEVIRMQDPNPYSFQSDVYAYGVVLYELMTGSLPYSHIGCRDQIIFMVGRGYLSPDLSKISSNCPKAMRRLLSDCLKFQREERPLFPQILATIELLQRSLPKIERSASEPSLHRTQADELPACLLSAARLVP
UniProt O14965: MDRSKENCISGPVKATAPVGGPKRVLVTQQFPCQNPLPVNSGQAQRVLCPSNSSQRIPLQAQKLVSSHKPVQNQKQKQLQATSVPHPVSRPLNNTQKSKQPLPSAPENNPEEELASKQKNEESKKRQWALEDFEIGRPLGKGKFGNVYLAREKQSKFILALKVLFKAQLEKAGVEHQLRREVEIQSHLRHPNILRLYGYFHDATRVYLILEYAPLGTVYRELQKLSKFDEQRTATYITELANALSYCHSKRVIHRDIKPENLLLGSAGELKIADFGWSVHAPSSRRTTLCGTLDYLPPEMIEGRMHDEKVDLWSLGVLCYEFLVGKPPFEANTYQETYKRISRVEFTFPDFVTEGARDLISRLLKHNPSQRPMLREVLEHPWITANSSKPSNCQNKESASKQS
UniProt Q96GD4, whole entry: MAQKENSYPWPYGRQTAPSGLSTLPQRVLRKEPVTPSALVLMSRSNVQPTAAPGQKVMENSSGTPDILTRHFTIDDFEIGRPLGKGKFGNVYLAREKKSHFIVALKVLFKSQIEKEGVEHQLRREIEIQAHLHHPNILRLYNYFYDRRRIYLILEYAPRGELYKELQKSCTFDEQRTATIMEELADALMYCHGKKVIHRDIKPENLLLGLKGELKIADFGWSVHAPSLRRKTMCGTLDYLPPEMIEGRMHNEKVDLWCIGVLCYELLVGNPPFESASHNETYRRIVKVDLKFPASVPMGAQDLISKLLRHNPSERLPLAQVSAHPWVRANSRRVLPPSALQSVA
UniProt P51813: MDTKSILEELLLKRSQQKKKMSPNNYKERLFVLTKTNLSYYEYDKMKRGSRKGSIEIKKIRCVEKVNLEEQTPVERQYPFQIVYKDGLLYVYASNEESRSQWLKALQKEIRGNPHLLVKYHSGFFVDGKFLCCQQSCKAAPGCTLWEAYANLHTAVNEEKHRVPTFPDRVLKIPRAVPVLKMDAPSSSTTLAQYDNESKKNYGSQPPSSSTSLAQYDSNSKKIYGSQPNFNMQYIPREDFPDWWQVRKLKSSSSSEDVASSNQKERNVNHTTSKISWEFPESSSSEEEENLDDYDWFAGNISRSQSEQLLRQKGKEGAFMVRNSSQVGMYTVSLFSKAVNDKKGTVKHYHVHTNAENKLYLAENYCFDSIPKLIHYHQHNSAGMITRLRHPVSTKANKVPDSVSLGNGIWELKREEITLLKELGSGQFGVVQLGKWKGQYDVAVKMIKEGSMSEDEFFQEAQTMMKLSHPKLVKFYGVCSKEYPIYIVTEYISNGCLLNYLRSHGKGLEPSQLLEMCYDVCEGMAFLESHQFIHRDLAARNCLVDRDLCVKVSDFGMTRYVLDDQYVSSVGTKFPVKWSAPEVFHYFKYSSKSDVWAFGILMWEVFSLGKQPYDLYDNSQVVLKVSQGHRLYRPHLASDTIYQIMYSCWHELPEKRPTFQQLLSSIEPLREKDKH
UniProt P15056, whole entry, looked up: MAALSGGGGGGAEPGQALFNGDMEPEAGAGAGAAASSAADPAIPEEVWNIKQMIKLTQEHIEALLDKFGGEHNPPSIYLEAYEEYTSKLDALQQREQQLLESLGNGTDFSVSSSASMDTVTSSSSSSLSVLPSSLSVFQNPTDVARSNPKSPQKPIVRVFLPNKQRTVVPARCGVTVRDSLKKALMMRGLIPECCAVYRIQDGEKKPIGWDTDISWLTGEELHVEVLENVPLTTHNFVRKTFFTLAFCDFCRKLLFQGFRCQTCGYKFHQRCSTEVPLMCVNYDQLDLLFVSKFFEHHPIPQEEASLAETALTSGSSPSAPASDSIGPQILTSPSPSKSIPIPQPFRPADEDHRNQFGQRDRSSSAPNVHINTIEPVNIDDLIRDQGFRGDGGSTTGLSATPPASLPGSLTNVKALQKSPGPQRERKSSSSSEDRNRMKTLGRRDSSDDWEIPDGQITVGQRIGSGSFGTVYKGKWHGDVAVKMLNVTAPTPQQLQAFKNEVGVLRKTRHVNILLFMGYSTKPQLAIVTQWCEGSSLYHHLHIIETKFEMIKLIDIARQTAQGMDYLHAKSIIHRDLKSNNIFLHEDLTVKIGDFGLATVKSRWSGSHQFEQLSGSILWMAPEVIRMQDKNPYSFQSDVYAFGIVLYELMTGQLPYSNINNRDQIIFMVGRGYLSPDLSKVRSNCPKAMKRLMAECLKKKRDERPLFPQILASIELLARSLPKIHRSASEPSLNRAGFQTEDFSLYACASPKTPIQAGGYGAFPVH
UniProt Q06187: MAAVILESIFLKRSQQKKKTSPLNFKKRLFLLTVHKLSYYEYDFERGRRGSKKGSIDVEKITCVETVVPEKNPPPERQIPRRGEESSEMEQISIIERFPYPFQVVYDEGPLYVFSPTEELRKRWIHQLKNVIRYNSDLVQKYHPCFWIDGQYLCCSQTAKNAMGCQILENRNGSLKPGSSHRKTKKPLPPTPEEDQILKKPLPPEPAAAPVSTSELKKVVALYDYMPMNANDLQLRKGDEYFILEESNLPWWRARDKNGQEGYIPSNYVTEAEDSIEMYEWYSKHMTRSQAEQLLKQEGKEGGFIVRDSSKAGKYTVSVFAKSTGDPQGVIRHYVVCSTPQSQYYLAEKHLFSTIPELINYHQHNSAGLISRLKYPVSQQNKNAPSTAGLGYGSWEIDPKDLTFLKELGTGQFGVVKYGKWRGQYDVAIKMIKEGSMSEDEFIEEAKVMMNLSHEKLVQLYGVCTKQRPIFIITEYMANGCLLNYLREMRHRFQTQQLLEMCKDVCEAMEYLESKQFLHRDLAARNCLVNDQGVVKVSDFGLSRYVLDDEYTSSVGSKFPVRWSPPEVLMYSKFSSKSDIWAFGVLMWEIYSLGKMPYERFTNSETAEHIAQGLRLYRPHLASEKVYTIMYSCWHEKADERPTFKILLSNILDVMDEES
UniProt Q9UQM7, whole entry: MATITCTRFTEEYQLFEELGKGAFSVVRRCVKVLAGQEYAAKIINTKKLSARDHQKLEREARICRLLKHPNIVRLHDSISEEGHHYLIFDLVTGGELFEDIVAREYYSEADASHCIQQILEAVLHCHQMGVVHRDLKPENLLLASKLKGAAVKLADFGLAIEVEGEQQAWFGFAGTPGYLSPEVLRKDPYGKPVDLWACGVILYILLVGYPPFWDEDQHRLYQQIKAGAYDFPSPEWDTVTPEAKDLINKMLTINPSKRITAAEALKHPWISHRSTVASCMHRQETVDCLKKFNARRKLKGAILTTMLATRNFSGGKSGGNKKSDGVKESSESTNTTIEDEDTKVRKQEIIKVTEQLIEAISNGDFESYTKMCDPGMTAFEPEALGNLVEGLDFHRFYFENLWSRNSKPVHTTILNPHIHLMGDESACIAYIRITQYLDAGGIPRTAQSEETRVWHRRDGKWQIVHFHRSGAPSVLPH
UniProt Q13555: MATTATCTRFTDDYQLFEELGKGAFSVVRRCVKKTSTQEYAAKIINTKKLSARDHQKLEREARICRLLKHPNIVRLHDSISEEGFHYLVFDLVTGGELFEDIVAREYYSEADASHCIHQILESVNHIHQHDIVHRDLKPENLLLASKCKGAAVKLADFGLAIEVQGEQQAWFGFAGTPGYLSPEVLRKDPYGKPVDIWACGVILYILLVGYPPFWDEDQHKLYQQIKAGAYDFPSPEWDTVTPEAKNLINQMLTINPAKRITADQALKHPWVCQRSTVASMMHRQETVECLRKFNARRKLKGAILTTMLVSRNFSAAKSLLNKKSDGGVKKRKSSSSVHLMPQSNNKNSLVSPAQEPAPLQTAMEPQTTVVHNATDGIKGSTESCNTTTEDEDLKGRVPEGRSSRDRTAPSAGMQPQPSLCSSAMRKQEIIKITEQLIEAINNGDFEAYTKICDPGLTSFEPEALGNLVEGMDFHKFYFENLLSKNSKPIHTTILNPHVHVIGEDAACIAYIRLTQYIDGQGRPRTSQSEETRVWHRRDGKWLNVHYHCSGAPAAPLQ

Measured: kinase-Nluc reporter destabilization hit call

COc1cc(N2CCN(C)CC2)ccc1Nc1ncc2c(n1)N(C1CCC1)C(=O)N(c1c(C)cccc1C)C2 (2.5 µM)
inactive: [1] 0 | [2] 0 | [3] 0 | [4] 0 | [5] 0 | [6] 0 | [7] 0 | [8] 0 | [9] 0 | [10] 0 | [11] 0 | [12] 0 | [13] 0 | [14] 0 | [15] 0 | [16] 0 | [17] 0 | [18] 0 | [19] 0 | [20] 0

Cn1cc(Nc2nccc(N3C[C@H]4CC[C@@H](C3)N4C(=O)[C@@H]3CC3(F)F)n2)cn1 (10 µM)
inactive: [1] 0 | [2] 0 | [3] 0 | [4] 0 | [5] 0 | [6] 0 | [7] 0 | [8] 0 | [9] 0 | [10] 0 | [11] 0 | [12] 0 | [13] 0 | [14] 0 | [15] 0 | [16] 0 | [17] 0 | [18] 0 | [19] 0 | [20] 0

OCCNC1CCCc2c1[nH]c1ccc(-c3ccccc3)cc21 (stereo not given) (2.5 µM)
inactive: [1] 0 | [2] 0 | [3] 0 | [4] 0 | [5] 0 | [6] 0 | [7] 0 | [8] 0 | [9] 0 | [10] 0 | [11] 0 | [12] 0 | [13] 0 | [14] 0 | [15] 0 | [16] 0 | [17] 0 | [18] 0 | [19] 0 | [20] 0

CCN(CC)c1ccc2cc(C(=O)N3CCN(C(=O)C4=Cc5c(Br)cccc5S4(=O)=O)CC3)c(=O)oc2c1 (2 µM)
inactive: [1] 0 | [2] 0 | [3] 0 | [4] 0 | [5] 0 | [6] 0 | [7] 0 | [8] 0 | [9] 0 | [10] 0 | [11] 0 | [12] 0 | [13] 0 | [14] 0 | [15] 0 | [16] 0 | [17] 0 | [18] 0 | [19] 0 | [20] 0

Nc1ncnc2c1c(-c1ccc(Oc3ccccc3)cc1)nn2C1CCNCC1 [N-piperidine Ibrutinib (hydrochloride)] (10 µM)
inactive: [1] 0 | [2] 0 | [3] 0 | [4] 0 | [5] 0 | [6] 0 | [7] 0 | [8] 0 | [9] 0 | [10] 0 | [11] 0 | [12] 0 | [13] 0 | [14] 0 | [15] 0 | [16] 0 | [17] 0 | [18] 0 | [19] 0 | [20] 0

Cc1c(CN2CCN(S(C)(=O)=O)CC2)sc2c(N3CCOCC3)nc(-c3cnc(N)nc3)nc12 (2.5 µM)
inactive: [1] 0 | [2] 0 | [3] 0 | [4] 0 | [5] 0 | [6] 0 | [7] 0 | [8] 0 | [9] 0 | [10] 0 | [11] 0 | [12] 0 | [13] 0 | [14] 0 | [15] 0 | [16] 0 | [17] 0 | [18] 0 | [19] 0 | [20] 0

CS(=O)(=O)c1ccc(-c2cnc(N)c(C(=O)Nc3ccccc3)n2)cc1 (10 µM)
inactive: [1] 0 | [2] 0 | [3] 0 | [4] 0 | [5] 0 | [6] 0 | [7] 0 | [8] 0 | [9] 0 | [10] 0 | [11] 0 | [12] 0 | [13] 0 | [14] 0 | [15] 0 | [16] 0 | [17] 0 | [18] 0 | [19] 0 | [20] 0

O=C(Nc1cc(Oc2cc(F)c(NC(=O)C3(C(=O)Nc4ccc(F)cc4)CC3)cc2F)ccn1)C1CC1 [Altiratinib] (10 µM)
active: [10] 1
inactive: [1] 0 | [2] 0 | [3] 0 | [4] 0 | [5] 0 | [6] 0 | [7] 0 | [8] 0 | [9] 0 | [11] 0 | [12] 0 | [13] 0 | [14] 0 | [15] 0 | [16] 0 | [17] 0 | [18] 0 | [19] 0 | [20] 0

C[C@]1(O)CCC[C@@H]1n1c(=O)c(C(F)F)cc2cnc(NC3CCN(S(C)(=O)=O)CC3)nc21 (10 µM)
inactive: [1] 0 | [2] 0 | [3] 0 | [4] 0 | [5] 0 | [6] 0 | [7] 0 | [8] 0 | [9] 0 | [10] 0 | [11] 0 | [12] 0 | [13] 0 | [14] 0 | [15] 0 | [16] 0 | [17] 0 | [18] 0 | [19] 0 | [20] 0

CN1C(=O)C(Cc2c[nH]c3ccccc23)NC1=S (stereo not given) [Necrostatin-1] (10 µM)
inactive: [1] 0 | [2] 0 | [3] 0 | [4] 0 | [5] 0 | [6] 0 | [7] 0 | [8] 0 | [9] 0 | [10] 0 | [11] 0 | [12] 0 | [13] 0 | [14] 0 | [15] 0 | [16] 0 | [17] 0 | [18] 0 | [19] 0 | [20] 0

O=C(NCCO)c1ccc2c(c1)nc(Nc1cccc(Cl)c1)c1ccncc12 [CK2 inhibitor 2] (10 µM)
inactive: [1] 0 | [2] 0 | [3] 0 | [4] 0 | [5] 0 | [6] 0 | [7] 0 | [8] 0 | [9] 0 | [10] 0 | [11] 0 | [12] 0 | [13] 0 | [14] 0 | [15] 0 | [16] 0 | [17] 0 | [18] 0 | [19] 0 | [20] 0

CNc1nc(Nc2cnn(C3CCN(C4COC4)CC3F)c2Cl)ncc1C(F)(F)F (stereo not given) (10 µM)
inactive: [1] 0 | [2] 0 | [3] 0 | [4] 0 | [5] 0 | [6] 0 | [7] 0 | [8] 0 | [9] 0 | [10] 0 | [11] 0 | [12] 0 | [13] 0 | [14] 0 | [15] 0 | [16] 0 | [17] 0 | [18] 0 | [19] 0 | [20] 0

Taken from the results shown, 2 compounds:
O=C(Nc1cc(Oc2cc(F)c(NC(=O)C3(C(=O)Nc4ccc(F)cc4)CC3)cc2F)ccn1)C1CC1 [Altiratinib] (10 µM)
active: [10] 1
inactive: [1] 0 | [2] 0 | [3] 0 | [4] 0 | [5] 0 | [6] 0 | [7] 0 | [8] 0 | [9] 0 | [11] 0 | [12] 0 | [13] 0 | [14] 0 | [15] 0 | [16] 0 | [17] 0 | [18] 0 | [19] 0 | [20] 0

C[C@]1(O)CCC[C@@H]1n1c(=O)c(C(F)F)cc2cnc(NC3CCN(S(C)(=O)=O)CC3)nc21 (10 µM)
inactive: [1] 0 | [2] 0 | [3] 0 | [4] 0 | [5] 0 | [6] 0 | [7] 0 | [8] 0 | [9] 0 | [10] 0 | [11] 0 | [12] 0 | [13] 0 | [14] 0 | [15] 0 | [16] 0 | [17] 0 | [18] 0 | [19] 0 | [20] 0

More records.

COC1(C(=O)N2Cc3nc(Cl)nc(N[C@H](C)c4cc(N)cc(C(F)(F)F)c4)c3C2)CCOCC1 (10 µM)
inactive: [1] 0 | [2] 0 | [3] 0 | [4] 0 | [5] 0 | [6] 0 | [7] 0 | [8] 0 | [9] 0 | [10] 0 | [11] 0 | [12] 0 | [13] 0 | [14] 0 | [15] 0 | [16] 0 | [17] 0 | [18] 0 | [19] 0 | [20] 0

CN(CCNc1ccc2ncc(-c3ccc(C(N)=O)cc3)n2n1)C(=O)OC(C)(C)C (10 µM)
inactive: [1] 0 | [2] 0 | [3] 0 | [4] 0 | [5] 0 | [6] 0 | [7] 0 | [8] 0 | [9] 0 | [10] 0 | [11] 0 | [12] 0 | [13] 0 | [14] 0 | [15] 0 | [16] 0 | [17] 0 | [18] 0 | [19] 0 | [20] 0

CC(=NNC(=O)c1ccc(C)c(Br)c1)c1ccc(O)cc1O [mTOR inhibitor-1] (2.5 µM)
inactive: [1] 0 | [2] 0 | [3] 0 | [4] 0 | [5] 0 | [6] 0 | [7] 0 | [8] 0 | [9] 0 | [10] 0 | [11] 0 | [12] 0 | [13] 0 | [14] 0 | [15] 0 | [16] 0 | [17] 0 | [18] 0 | [19] 0 | [20] 0

Cc1cc(NC(=O)c2cccc(NC(=O)/C=C/CN(C)C)c2)ccc1Nc1nccc(-c2cccnc2)n1 (10 µM)
inactive: [1] 0 | [2] 0 | [3] 0 | [4] 0 | [5] 0 | [6] 0 | [7] 0 | [8] 0 | [9] 0 | [10] 0 | [11] 0 | [12] 0 | [13] 0 | [14] 0 | [15] 0 | [16] 0 | [17] 0 | [18] 0 | [19] 0 | [20] 0

NCCN1CCN(C/C=C/C(=O)N2CCC[C@@H](n3nc(-c4ccc(Oc5ccccc5)cc4)c4c(N)ncnc43)C2)CC1 [Ibrutinib-MPEA] (10 µM)
inactive: [1] 0 | [2] 0 | [3] 0 | [4] 0 | [5] 0 | [6] 0 | [7] 0 | [8] 0 | [9] 0 | [10] 0 | [11] 0 | [12] 0 | [13] 0 | [14] 0 | [15] 0 | [16] 0 | [17] 0 | [18] 0 | [19] 0 | [20] 0

COc1ccc2[nH]cc(/C=C3\C(=O)Nc4ccc(NC(=O)CCN5CCCCC5)cc43)c2c1 (2.5 µM)
inactive: [1] 0 | [2] 0 | [3] 0 | [4] 0 | [5] 0 | [6] 0 | [7] 0 | [8] 0 | [9] 0 | [10] 0 | [11] 0 | [12] 0 | [13] 0 | [14] 0 | [15] 0 | [16] 0 | [17] 0 | [18] 0 | [19] 0 | [20] 0

From the supplement of paper PMC12823440, “Inhibitors supercharge kinase turnover through native proteolytic circuits” (Nature, 2025)
